Patent publication US20130035256A1, “Chimeric Polypeptides Useful in Proximal and Dynamic High-Throughput Screening Methods” (ADDEX PHARMA SA, priority 2010, published 2013)
For at least one compound, name, drawing or mass did not settle the structure.

Sequences of proteins named here, by UniProt entry; tags and fusion partners are left off. A change or cut given only in a name is not applied to a line headed by its entry. A line that says so, or that is headed by a name, gives the form on record, which may keep a tag or linker.
UniProt P08173, with tags, fused parts or gaps: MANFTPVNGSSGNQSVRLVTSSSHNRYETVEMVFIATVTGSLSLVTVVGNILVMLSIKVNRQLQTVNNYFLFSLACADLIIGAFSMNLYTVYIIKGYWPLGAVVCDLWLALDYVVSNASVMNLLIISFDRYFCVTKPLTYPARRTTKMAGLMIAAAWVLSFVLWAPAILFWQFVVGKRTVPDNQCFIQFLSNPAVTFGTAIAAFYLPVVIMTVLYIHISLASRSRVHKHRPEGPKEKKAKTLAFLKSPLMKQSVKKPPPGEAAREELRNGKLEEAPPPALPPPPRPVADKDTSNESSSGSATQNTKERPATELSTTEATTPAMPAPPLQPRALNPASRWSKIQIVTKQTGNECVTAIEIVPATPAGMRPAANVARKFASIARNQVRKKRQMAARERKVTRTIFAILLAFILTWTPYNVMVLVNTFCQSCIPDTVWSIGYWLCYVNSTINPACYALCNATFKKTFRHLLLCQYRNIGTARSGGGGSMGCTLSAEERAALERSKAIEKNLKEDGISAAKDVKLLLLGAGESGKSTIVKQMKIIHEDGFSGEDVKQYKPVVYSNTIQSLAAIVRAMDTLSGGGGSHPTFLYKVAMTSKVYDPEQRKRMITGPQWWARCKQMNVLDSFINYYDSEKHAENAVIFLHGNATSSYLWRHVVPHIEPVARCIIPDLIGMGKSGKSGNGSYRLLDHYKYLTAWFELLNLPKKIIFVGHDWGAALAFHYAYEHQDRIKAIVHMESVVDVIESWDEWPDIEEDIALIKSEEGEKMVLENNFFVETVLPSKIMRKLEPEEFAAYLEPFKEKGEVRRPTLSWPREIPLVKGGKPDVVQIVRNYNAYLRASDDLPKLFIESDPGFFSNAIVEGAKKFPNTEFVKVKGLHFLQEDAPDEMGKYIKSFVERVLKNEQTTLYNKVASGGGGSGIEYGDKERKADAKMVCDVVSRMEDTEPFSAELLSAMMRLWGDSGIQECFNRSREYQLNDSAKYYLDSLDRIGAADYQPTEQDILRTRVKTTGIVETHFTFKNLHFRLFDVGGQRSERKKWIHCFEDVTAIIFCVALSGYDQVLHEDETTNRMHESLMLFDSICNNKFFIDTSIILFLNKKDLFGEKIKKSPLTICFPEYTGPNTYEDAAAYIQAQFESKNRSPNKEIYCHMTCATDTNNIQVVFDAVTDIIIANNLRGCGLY

Biological target: T1, chimeric M4R (RGLG-2) (Homo sapiens, UniProt P08173)
T1 construct: ID; NOs; expressed in transfected cells
Test: BRET assay of the invention, cells co-expressing chimeric M4R (RGLG-2) and FP-Gγ9
Assay type: cell-based
Details: increasing concentrations of ligand
Procedure: The same cells as described for FIG. 10 A were used. […] The decrease of the signal below baseline in the PTX-treated condition confirms a constitutive activity that has been described for the M4R. […]
A typical experiment has the following sequence.
The assay of the present invention was compared with a state of the art calcium based assay. […] In calcium-based assay, a calcium flux is measured in cells co-expressing recombinant M4R and modified Gαq. In the assay in accordance with the present invention, BRET in measured in cells co-expressing a chimeric M4R according to RGLG-2 (construct and cell-line from FIG. 2C, Table 6) and FP-Gγ9 (as described in FIG. 10A). The data represent mean values and they are normalized to the maximal effect of the orthosteric agonist after the subtraction of the basal values.

**Q.** Which “activation of the chimeric M4R (BRET)” value does the source give for `CC(=O)OCC[N+](C)(C)C` [ACh, Acetylcholine] here?
**A.** The value was “activation”.
